Reference: PMC8692912
Results are given in words; binding and its absence hold for the method and conditions named. Binding seen in cells or lysates may run through a third protein. Some results given as binding are weak or reduced against the parent protein; the word gives no strength.

The chains behind the UniProt entries cited, without tags or fusion partners.
UniProt P26041: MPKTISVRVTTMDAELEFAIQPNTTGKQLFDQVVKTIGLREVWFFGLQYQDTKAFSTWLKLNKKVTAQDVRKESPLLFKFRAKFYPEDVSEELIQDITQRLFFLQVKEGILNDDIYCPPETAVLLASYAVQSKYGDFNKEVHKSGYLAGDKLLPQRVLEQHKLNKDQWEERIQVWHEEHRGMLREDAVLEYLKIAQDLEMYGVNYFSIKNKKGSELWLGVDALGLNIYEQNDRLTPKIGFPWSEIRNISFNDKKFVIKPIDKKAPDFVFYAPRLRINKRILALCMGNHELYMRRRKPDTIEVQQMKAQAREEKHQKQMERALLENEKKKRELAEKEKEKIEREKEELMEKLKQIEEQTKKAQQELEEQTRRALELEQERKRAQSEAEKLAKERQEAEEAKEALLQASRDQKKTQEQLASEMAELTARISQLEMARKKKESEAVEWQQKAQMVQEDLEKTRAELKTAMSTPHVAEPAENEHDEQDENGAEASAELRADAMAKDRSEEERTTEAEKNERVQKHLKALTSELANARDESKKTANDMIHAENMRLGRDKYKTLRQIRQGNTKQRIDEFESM

Target: moesin (MSN) (mouse (endogenous in EO771)) (UniProt P26041)
Test: co-IP; rabbit antibody to MSN on protein A sepharose, incubated overnight with EO771 cell lysate; washed three times with PBS; blot for CD44; rabbit IgG as negative control

B1: CD44 (receptor, UniProt P15379 23-778)
chain: QIDLNVTCRYAGVFHVEKNGRYSISRTEAADLCQAFNSTLPTMDQMKLALSKGFETCRYGFIEGNVVIPRIHPNAICAANHTGVYILVTSNTSHYDTYCFNASAPPEEDCTSVTDLPNSFDGPVTITIVNRDGTRYSKKGEYRTHQEDIDASNIIDDDVSSGSTIEKSTPEGYILHTYLPTEQPTGDQDDSFFIRSTLATIASTVHSKSHAAAQKQNNWIWSWFGNSQSTTQTQEPTTSATTALMTTPETPPKRQEAQNWFSWLFQPSESKSHLHTTTKMPGTESNTNPTGWEPNEENEDETDTYPSFSGSGIDDDEDFISSTIATTPRVSARTEDNQDWTQWKPNHSNPEVLLQTTTRMADIDRISTSAHGENWTPEPQPPFNNHEYQDEEETPHATSTTPNSTAEAAATQQETWFQNGWQGKNPPTPSEDSHVTEGTTASAHNNHPSQRITTQSQEDVSWTDFFDPISHPMGQGHQTESKDTDSSHSTTLQPTAAPNTHLVEDLNRTGPLSVTTPQSHSQNFSTLHGEPEEDENYPTTSILPSSTKSSAKDARRGGSLPTDTTTSVEGYTFQYPDTMENGTLFPVTPAKTEVFGETEVTLATDSNVNVDGSLPGDRDSSKDSRGSSRTVTHGSELAGHSSANQDSGVTTTSGPMRRPQIPEWLIILASLLALALILAVCIAVNSRRRCGQKKKLVINGGNGTVEDRKPSELNGEASKSQEMVHLVNKEPSETPDQCMTADETRNLQSVDMKIGV
  binding: binds
